Data as given in the M2OR odorant receptor database.
This is a selection; strong and weak results do not stand in their true shares. Calls are pooled over several reports, among them a noisy single-well screen. The list shows a part of the results.

Key:
Details in all cases: stereoisomer not certain
[1] = molecular target: T1, UniProt Q8VGT4
T1 sequence (whole entry): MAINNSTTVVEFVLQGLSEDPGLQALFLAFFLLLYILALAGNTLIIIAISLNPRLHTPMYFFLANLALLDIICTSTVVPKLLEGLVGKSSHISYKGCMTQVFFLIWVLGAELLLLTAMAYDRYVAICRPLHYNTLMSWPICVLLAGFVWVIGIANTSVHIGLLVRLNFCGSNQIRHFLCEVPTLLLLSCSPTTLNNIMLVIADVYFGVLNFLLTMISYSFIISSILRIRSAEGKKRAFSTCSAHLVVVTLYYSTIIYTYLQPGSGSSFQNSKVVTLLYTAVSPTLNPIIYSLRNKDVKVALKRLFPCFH
How it was run: (§1)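 Each receptor–molecule pair is labelled responsive or non-responsive (inactive) according to whether the original authors judged the measured signal statistically different from baseline. The data were taken from the main text and supplementary material of published papers and checked for typos and inconsistencies. Assay methods differed by source, with transient luciferase assays in mammalian cell lines being common.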

[2] = molecular target: T2, UniProt Q8VGU3
T2 sequence (whole entry): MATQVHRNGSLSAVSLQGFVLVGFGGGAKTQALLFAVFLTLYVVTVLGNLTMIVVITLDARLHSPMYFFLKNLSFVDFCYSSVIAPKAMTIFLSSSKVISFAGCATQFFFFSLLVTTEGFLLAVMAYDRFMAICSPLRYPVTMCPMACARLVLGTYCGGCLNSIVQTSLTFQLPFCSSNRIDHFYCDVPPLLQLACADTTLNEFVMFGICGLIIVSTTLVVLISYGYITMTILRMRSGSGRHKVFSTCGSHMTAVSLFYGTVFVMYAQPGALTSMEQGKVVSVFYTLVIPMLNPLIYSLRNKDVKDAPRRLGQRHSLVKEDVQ
How it was run: as §1

[3] = molecular target: T3, UniProt Q8VGV1
T3 sequence (whole entry): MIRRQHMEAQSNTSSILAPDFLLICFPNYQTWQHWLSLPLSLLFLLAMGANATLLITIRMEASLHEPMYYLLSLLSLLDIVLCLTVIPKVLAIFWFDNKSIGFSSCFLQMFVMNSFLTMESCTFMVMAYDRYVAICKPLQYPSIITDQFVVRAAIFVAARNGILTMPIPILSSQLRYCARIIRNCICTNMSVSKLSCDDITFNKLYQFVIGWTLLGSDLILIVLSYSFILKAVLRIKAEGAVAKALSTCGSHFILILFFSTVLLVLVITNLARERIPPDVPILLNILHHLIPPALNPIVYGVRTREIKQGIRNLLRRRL
How it was run: as §1

[4] = molecular target: T4, UniProt Q8VGV7
T4 sequence (whole entry): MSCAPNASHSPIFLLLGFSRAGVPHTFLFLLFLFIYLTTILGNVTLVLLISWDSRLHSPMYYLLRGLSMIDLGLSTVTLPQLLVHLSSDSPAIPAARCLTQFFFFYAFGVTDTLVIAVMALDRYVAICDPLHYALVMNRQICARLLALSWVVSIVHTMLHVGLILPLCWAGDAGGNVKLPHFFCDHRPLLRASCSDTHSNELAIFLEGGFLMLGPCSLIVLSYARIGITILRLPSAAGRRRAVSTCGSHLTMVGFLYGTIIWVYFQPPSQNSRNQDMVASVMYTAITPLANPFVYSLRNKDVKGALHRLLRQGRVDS
How it was run: as §1

[5] = molecular target: T5, UniProt Q8VGW5
T5 sequence (whole entry): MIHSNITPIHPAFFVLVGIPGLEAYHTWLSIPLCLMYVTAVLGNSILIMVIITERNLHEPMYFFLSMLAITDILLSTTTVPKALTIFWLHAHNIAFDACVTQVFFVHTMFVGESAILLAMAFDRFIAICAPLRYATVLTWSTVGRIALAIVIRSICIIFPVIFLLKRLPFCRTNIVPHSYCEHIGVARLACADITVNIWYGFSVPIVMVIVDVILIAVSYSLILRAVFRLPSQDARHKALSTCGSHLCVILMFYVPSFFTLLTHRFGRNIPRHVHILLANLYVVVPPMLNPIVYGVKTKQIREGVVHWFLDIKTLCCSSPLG
How it was run: as §1

[6] = molecular target: T6, UniProt Q8VGX3
T6 sequence (whole entry): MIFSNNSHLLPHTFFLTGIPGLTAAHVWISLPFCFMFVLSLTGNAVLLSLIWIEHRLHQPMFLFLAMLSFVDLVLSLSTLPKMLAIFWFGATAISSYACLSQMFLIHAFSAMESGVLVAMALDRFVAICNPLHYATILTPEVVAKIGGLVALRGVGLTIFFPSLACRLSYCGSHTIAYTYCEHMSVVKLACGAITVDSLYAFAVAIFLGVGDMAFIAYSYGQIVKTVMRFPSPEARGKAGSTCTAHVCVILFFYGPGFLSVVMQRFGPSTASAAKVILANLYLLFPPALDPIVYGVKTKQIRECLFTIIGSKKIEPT
How it was run: as §1

[7] = molecular target: T7, UniProt Q8VGX5
T7 sequence (whole entry): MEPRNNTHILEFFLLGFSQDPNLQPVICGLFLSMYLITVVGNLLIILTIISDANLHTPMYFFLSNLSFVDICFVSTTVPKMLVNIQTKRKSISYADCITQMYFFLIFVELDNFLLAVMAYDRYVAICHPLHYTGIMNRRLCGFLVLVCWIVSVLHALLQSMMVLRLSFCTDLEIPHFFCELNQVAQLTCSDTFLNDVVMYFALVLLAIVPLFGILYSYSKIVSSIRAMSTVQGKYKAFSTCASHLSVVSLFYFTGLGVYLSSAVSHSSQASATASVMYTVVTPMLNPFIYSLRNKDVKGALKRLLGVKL
How it was run: as §1

[8] = molecular target: T8, UniProt Q8VGX8
T8 sequence (whole entry): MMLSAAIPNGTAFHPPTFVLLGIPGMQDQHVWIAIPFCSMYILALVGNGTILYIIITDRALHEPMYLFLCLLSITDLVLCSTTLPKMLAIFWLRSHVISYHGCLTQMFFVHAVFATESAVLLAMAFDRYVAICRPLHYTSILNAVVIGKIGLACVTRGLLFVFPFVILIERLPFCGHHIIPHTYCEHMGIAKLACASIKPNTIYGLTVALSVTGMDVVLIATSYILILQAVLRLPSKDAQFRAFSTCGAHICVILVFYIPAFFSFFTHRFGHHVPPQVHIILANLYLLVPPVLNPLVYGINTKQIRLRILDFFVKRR
How it was run: as §1

[9] = molecular target: T9, UniProt Q8VGY6
T9 sequence (whole entry): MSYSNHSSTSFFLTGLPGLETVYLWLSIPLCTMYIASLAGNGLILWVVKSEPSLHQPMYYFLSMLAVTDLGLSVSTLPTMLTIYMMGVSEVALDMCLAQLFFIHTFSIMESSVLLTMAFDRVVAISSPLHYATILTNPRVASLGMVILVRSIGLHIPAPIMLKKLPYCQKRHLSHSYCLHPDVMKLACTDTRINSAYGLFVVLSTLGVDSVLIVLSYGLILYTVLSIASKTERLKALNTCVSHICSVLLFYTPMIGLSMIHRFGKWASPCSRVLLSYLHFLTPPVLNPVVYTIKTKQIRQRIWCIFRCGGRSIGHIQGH
How it was run: as §1

[10] = molecular target: T10, UniProt Q8VGZ2
T10 sequence (whole entry): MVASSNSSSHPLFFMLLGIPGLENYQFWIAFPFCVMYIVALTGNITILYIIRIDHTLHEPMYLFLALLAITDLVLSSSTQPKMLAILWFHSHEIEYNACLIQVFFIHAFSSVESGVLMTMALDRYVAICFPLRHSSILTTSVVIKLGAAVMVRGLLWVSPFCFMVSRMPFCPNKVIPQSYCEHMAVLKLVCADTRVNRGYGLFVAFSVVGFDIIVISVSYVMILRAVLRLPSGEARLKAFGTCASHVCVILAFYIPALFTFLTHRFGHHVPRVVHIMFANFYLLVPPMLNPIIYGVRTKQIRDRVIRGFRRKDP
How it was run: as §1

[11] = molecular target: T11, UniProt Q8VGZ7
T11 sequence (whole entry): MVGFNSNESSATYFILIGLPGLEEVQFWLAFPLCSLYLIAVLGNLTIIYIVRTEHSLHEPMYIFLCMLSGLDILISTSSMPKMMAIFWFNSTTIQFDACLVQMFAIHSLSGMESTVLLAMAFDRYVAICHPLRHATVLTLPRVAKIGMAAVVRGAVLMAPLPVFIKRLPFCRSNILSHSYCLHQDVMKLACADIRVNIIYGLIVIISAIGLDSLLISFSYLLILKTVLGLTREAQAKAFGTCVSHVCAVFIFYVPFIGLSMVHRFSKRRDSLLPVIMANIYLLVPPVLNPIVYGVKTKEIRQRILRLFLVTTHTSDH
How it was run: as §1

[12] = molecular target: T12, UniProt Q8VH10
T12 sequence (whole entry): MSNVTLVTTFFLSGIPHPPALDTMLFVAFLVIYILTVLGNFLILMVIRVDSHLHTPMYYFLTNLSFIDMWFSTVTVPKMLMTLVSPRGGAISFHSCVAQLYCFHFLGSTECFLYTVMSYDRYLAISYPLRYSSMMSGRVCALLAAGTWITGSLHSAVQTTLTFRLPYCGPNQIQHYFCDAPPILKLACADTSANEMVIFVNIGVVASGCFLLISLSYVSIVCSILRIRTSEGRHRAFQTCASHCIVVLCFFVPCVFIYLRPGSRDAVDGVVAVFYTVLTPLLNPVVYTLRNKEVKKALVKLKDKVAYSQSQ
How it was run: as §1

[13] = molecular target: T13, UniProt Q8VH16
T13 sequence (whole entry): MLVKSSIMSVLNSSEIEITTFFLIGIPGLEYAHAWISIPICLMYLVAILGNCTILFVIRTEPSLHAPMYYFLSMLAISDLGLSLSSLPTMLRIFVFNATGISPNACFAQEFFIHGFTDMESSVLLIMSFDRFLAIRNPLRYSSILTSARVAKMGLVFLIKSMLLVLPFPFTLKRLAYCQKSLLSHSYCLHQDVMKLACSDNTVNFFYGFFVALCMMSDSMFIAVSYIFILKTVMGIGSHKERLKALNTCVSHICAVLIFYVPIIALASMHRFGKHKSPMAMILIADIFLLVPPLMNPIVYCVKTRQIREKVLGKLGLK
How it was run: as §1

[14] = molecular target: T14, UniProt Q8VH18
T14 sequence (whole entry): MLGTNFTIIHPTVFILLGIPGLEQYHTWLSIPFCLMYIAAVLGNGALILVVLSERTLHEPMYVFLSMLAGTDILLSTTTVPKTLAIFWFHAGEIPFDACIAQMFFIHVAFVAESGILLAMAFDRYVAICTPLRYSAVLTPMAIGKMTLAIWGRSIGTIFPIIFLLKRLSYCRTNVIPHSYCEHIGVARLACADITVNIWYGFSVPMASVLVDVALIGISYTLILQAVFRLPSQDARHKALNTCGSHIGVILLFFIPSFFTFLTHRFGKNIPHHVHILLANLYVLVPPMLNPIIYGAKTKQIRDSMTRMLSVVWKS
How it was run: as §1

[15] = molecular target: T15, UniProt Q8VH20
T15 sequence (whole entry): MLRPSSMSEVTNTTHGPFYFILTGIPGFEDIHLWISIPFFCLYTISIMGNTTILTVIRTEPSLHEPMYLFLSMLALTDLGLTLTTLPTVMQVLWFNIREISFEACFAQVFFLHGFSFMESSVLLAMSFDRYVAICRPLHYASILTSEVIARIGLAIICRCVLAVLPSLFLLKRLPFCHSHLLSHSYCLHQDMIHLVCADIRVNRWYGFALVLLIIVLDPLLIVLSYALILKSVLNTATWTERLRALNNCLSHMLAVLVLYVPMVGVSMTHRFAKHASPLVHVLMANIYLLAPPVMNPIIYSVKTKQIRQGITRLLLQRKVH
How it was run: as §1

[16] = molecular target: T16, UniProt Q8VH21
T16 sequence (whole entry): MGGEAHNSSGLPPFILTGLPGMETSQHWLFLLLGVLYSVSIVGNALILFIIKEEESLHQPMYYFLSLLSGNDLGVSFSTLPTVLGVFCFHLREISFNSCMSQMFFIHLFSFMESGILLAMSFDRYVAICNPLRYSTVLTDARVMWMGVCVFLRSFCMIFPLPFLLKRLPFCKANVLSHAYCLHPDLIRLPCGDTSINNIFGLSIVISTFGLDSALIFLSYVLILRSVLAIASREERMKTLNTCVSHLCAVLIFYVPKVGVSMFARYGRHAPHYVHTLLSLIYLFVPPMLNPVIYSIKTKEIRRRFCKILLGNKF
How it was run: as §1

[17] = molecular target: T17, UniProt Q920P1
T17 sequence (whole entry): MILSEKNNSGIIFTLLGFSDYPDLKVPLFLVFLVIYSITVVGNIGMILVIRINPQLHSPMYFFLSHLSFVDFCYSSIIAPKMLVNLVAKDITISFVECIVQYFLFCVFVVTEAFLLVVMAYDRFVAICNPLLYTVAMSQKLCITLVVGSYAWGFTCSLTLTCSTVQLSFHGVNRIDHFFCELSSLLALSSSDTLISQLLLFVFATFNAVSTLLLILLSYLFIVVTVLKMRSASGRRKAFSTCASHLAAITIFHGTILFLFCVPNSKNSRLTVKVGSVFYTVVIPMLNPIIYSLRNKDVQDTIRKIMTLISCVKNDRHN
How it was run: as §1

[18] = molecular target: T18, UniProt Q920P2
T18 sequence (whole entry): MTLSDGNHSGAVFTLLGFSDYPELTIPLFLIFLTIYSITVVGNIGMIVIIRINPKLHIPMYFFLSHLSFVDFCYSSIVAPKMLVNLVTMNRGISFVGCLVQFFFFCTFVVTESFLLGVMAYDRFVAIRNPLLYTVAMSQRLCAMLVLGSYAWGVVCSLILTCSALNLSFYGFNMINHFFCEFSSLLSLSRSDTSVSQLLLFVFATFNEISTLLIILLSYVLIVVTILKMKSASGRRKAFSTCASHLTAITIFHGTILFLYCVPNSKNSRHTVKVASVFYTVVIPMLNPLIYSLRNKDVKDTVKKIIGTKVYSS
How it was run: as §1

[19] = molecular target: T19, UniProt Q924H8
T19 sequence (whole entry): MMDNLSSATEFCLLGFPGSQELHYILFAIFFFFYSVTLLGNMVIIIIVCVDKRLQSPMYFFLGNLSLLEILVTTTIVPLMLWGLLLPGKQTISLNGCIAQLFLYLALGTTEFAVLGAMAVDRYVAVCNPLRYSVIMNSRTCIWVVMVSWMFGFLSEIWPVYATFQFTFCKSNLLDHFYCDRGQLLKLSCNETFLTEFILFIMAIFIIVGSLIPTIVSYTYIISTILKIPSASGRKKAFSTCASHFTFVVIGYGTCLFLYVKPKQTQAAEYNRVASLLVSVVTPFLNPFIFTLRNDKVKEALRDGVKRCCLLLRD
How it was run: as §1

Measured: odorant receptor agonist call

C=C(C)C1CC=C(C)C(=O)C1 (centres undefined)
active: [7]
inactive: all other assays above
